Assay results reported in PubChem BioAssay AID1117319 (Southern Research Institute, 2015).
Where “and” joins values, the source holds several entries; their conditions need not be identical. Equal entries are not always repeated. Out of some 260,000 compounds screened, about 1,500 (0.58%) were called active. Inconclusive means that the source gave no clear call. Such entries were picked first, then a sample of the others.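 The calls were made as follows: active = inhibition above a set limit at one or more doses, reproduced on every date tested; inconclusive = results disagree between test dates, or hit never tested in dose response; inactive = the rest.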

Sequences of proteins named here, by UniProt entry; tags and fusion partners are left off. A change or cut given only in a name is not applied to a line headed by its entry.
UniProt P69720: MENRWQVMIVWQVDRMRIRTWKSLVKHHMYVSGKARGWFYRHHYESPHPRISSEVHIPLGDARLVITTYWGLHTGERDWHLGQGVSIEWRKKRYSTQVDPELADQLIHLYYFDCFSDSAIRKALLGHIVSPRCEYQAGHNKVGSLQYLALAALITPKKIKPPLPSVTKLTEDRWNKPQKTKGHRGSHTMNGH
UniProt P69721: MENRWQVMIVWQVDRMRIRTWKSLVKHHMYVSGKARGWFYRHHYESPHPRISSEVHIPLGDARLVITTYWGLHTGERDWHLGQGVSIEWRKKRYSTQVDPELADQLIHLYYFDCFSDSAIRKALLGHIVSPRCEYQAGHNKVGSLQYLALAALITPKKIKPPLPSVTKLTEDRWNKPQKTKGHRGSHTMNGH
UniProt P69722: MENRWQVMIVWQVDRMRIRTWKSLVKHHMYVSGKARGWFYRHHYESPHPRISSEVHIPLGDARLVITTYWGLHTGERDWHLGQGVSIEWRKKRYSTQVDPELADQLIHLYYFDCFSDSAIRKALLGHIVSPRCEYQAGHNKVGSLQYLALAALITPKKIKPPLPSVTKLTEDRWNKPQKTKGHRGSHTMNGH
UniProt P69723: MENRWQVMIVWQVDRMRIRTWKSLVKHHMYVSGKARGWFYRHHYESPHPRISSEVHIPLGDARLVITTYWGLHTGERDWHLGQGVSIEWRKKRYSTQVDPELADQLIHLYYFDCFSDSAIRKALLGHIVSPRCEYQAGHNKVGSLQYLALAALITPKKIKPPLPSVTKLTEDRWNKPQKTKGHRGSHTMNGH
UniProt Q9HC16: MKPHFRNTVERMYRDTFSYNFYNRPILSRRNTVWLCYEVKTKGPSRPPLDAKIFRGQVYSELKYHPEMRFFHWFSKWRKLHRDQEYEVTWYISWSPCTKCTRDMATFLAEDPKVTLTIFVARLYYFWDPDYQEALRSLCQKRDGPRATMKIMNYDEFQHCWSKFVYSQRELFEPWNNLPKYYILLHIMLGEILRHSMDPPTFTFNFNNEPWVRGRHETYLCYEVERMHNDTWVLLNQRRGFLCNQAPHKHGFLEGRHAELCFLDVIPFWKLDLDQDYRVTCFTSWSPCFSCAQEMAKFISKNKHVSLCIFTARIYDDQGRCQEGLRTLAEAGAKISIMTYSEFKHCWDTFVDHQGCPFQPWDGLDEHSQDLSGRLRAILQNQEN

Target: Virion infectivity factor (Human immunodeficiency virus type 1 group M subtype B (isolate BH10)) + Virion infectivity factor (Human immunodeficiency virus type 1 group M subtype B (isolate BRU/LAI)) + Virion infectivity factor (Human immunodeficiency virus type 1 group M subtype B (isolate PCV12)) + Virion infectivity factor (Human immunodeficiency virus type 1 group M subtype B (isolate HXB2)) + DNA dC->dU-editing enzyme APOBEC-3G (Homo sapiens) (UniProt P69720+P69721+P69722+P69723+Q9HC16)
Experiment: inhibitors of Vif binding to APOBEC3G peptide, primary screen, biochemical, TR-FRET, GST-Vif 1-94, biotin-A3G peptide, dose response retest (AID 1117319);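 also: Vif residues 1-94 fused to GST binding biotinylated APOBEC3G peptide 110-148; 0% = full assay without inhibitor and 100% = GST in place of GST-Vif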
Conditions: stronger effect = higher value

Compound	inhibition
CN(C(=O)c1cccc(C#N)c1)c1nnc(C2CCOC2)s1 (stereo not drawn)	inconclusive: 20.8%
Cc1cc(C)nc(N2CCCC(C(=O)NCCc3cccc(F)c3)C2)n1 (stereo not drawn)	inconclusive: 36.9%
COC(CNC(=O)CNC(=S)N(CCCN1CCOCC1)Cc1cccs1)OC	inconclusive: 34.4%
Cc1occc1C(=O)NC(C)C1CCCO1 (stereo not drawn)	inconclusive: 55.1%
O=C1NCCCC2c3c(cc(Br)c(O)c3Br)OC12N1CCCCC1 (stereo not drawn)	inconclusive: 43.2%
O=C(O)/C(=C\c1cn(-c2ccccc2)nc1-c1cccnc1)NC(=O)c1ccccc1	inactive: -1.44%
O=C(Nc1ccc(Cl)cc1)C1CCC(=O)N1Cc1ccccc1Cl (stereo not drawn)	inconclusive: 54.4%
O=C(COc1cccc2ccccc12)NNC(=O)C1CCCO1 (stereo not drawn)	inconclusive: 51.4%
COc1ccc(N2CCN(CCCNC(=O)Nc3ccccc3)CC2)cc1	inconclusive: 22.8%
O=C(CN1CCOCC1)Nc1c2c(nc3c1CCC3)CCC2	inconclusive: 24.9%
CC(CNS(=O)(=O)c1ccccc1)Sc1ncccn1 (stereo not drawn)	inconclusive: 41.8%
COC(=O)CC(NC(=O)c1cccs1)c1ccc(OC)c(OC)c1 (stereo not drawn)	inconclusive: 48.3%
Cc1cc2n(n1)C(c1cccs1)Nc1ccccc1-2 (stereo not drawn)	inconclusive: 61.4%
Cc1ccc(OCC(=O)Nc2ccncc2)c(C)c1	inconclusive: 33.6%
NNc1nc(C(F)(F)F)nc2ccccc12	inactive: -3.12%
CC(=O)Nc1ccc(SCC(=O)Nc2ccccc2N2CCOCC2)cc1	inactive: -9.09%
O=C(NCCNC(=O)c1ccco1)c1ccc(F)cc1	inconclusive: 33.6%
C=CCN1C(=O)N/C(=C/c2ccc(C)o2)C1=O	inconclusive: 34.3%
COC(=O)[C@H]1C[C@@H]1[C@H](NC(=O)[C@H]1C[C@@H]1[C@H](NC(=O)OCc1ccccc1)c1ccccc1)c1ccccc1	inactive: 25.9%
CCN(CC)S(=O)(=O)c1cccc(C(=O)N/N=C/c2cccc(O)c2O)c1	inconclusive: 41.7%

In the list so far, these have a furan ring, fused or not:
Compound	inhibition
Cc1occc1C(=O)NC(C)C1CCCO1 (stereo not drawn)	inconclusive: 55.1%
O=C(NCCNC(=O)c1ccco1)c1ccc(F)cc1	inconclusive: 33.6%
C=CCN1C(=O)N/C(=C/c2ccc(C)o2)C1=O	inconclusive: 34.3%

The list goes on.

Compound	inhibition
O=C(O)O	inconclusive: 43.6%
O=[N+]([O-])c1cc(Cc2ccccc2)cc(C=Nc2ccc(N3CCOCC3)cc2)c1O	inactive: 23.6%
Cc1noc(C)c1C(=O)Nc1ccc(Cl)cc1C(F)(F)F	inconclusive: 36.1%
O=C1SCCC1NS(=O)(=O)c1ccccc1[N+](=O)[O-] (stereo not drawn)	inconclusive: 34.1%
COc1cccc(C(=O)Nc2c3c(nn2-c2ccc(Cl)cc2)CS(=O)(=O)C3)c1OC	inconclusive: 54%
NS(=O)(=O)c1ccc(CCNC(=O)CCC2COc3ccccc3O2)cc1 (stereo not drawn)	inconclusive: 43%
CCOC=C1SC(=S)N(c2ccccc2OC)C1=O	inactive: -1.46%
O=C(CCCn1c(SCC(=O)c2ccc(F)cc2)nc2ccccc2c1=O)NCc1ccccc1	inconclusive: 60.9%
Cc1ccc(/C=N/N=C2/NC(=O)C(CC(=O)Nc3ccc(Cl)cc3)S2)o1 (stereo not drawn)	inconclusive: 43.6%
Cc1ccc(C)c(NC(=O)CCC(=O)N/N=C/c2ccc3c(c2)OCO3)c1	inconclusive: 43.1%
C#CCSc1nnnn1-c1ccc(OCC)cc1	inconclusive: 61.7%
c1ccc(Nc2nc(N3CCNCC3)nc(N3CCOCC3)n2)cc1	inconclusive: 35.5%
CCC(=O)OCCNc1cc(Sc2nc3ccccc3s2)c2nonc2c1[N+](=O)[O-]	inconclusive: 56.2% and inactive: 5.25%
CC(=O)c1ccc(N2C(=O)[C@@H]3C(CCC(N)=O)NC4(C(=O)Nc5c4ccc(Cl)c5C)[C@@H]3C2=O)cc1 (stereo partly drawn)	inconclusive: 25.1%
COCCNC(=O)c1onc(CCl)c1C(=O)OC	inconclusive: 54.2%
COc1ccccc1CNC(=O)CCn1c(=O)oc2ccccc21	inactive: 0.68%
Cc1ccc(C2C(C#N)=C(N)N(c3cccnc3)C3=C2C(=O)CCC3)c(C)c1 (stereo not drawn)	inactive: -5.44%
COc1ccccc1OCC(=O)NCC1CCCN(Cc2cnn(C)c2C)C1 (stereo not drawn)	inconclusive: 36.7%
CC1CCCC(NC(=O)CN(C)S(=O)(=O)c2cnc[nH]2)C1C (stereo not drawn)	inconclusive: 49.3%
COC(=O)c1cn(NC(=O)c2ccncc2)c(=O)c2ccccc12	inconclusive: 45.2%

Compound	inhibition
Nc1cc(Br)c(N)c(Br)c1	inconclusive: 36.6%
CCNC(=O)COC(=O)c1ccc(S(=O)(=O)N2CCCCCC2)cc1	inactive: -4.99%
COc1ccccc1N1CCN(CC(O)c2ccc3cc[nH]c3c2)CC1 (stereo not drawn)	inconclusive: 60.5%
C/C(N)=C(/C#N)C(=O)CSc1nnnn1-c1ccccc1	inconclusive: 38.5%
Cc1ccc(Cl)cc1N1CCN(CC(=O)Nc2ccc(CN3CCCCC3)cc2)CC1	inconclusive: 34.9%
COc1ccc(C(=O)N/N=C/c2ccccn2)cc1OC	inconclusive: 52.6%
Cc1ccc(Cn2ncc3c(N4CCN(Cc5ccc(Cl)cc5)CC4)ncnc32)cc1	inconclusive: 60%
Cc1ccc(OCC(=O)N2CCN(C(=O)c3cccs3)CC2)cc1	inconclusive: 34.5%
COc1ccc(-c2noc(C3CCCN(C(=O)c4ccc(C)cc4)C3)n2)cc1 (stereo not drawn)	inconclusive: 48.2%
OCCN1CCOCCN(CCO)CCN(CCO)CC1	inconclusive: 41.4%
O=C(NCCc1ccccc1)C(=O)NCC1CCNCC1	inconclusive: 47.5%
O=C(NN1C(=O)C2C(C1=O)C1C=CC2C12CC2)c1cccnc1 (stereo not drawn)	inconclusive: 54.3%
COc1ccc(C(=O)CC(=O)O)c2c1C=CC(C)(C)O2	inconclusive: 37.4%
Cc1c(/C=N/Nc2ccc(F)cc2)c(O)n(C)c(=O)c1C#N	inactive: 12.3%
O=C(NCCc1nc2ccccc2[nH]1)c1ccc(Cl)c([N+](=O)[O-])c1	inconclusive: 39.4%
CCOC(=O)c1c(NC(=O)COC(=O)c2ccc(O)cc2)sc(C(=O)N(C)C)c1C	inconclusive: 34.7%
Cc1cc(C)nc(NS(=O)(=O)c2ccc(Br)cc2)n1	inconclusive: 34.6%
O=C(CCN1CCN(CCO)CC1)Nc1ccc(OCc2ccccc2)cc1	inactive: -0.21%

Part of the list above in order of heavy-atom count, rising.
Compound	inhibition
Nc1cc(Br)c(N)c(Br)c1	inconclusive: 36.6%
C/C(N)=C(/C#N)C(=O)CSc1nnnn1-c1ccccc1	inconclusive: 38.5%
Cc1ccc(Cl)cc1N1CCN(CC(=O)Nc2ccc(CN3CCCCC3)cc2)CC1	inconclusive: 34.9%
